A: 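Growth of Mycobacterium tuberculosis over 3 days (7H9 medium with glucose and tyloxapol); the read-out is not stated. Compounds at 50 µM. The record gives no direction; compounds that gave an IC50 in retests scored well above the rest, so higher reads as more growth inhibition. Size under these conditions: about 69,000 compounds, about 760 of them at 50% or above in at least one test.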
B: 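Whole-cell growth test on Mycobacterium tuberculosis, read after 4 days in a medium based on cholesterol and the lipid DPPC; the read-out is not stated. Compounds at 50 µM. The record gives no direction; compounds that gave an IC50 in retests scored well above the rest, so higher reads as more growth inhibition. About 69,000 compounds were tested under these conditions; 0.54% (about 370) showed 50% or more at least once.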

Values are the deposited “Percent Effect”, in %. How 0% and 100% were set is not recorded. Most values in the screen are low, and negative values occur. Compounds were drawn at random from those tested, without regard to their results. Two or more numbers in one place are separate tests of the same structure; such repeats can differ widely.

For Cc1ccc(-c2cc(CN3CCc4cnc(C)nc4C3)on2)cc1 the result was A: 21.15%; B: 41.79%. With CN(C)S(=O)(=O)c1ccc(=O)n(CC2CCCO2)c1 (configuration not stated) the screen gave A: -28.15%; B: -13.89%. O=c1n(CCNCc2cccc3ccccc23)nc2ccccn12 gave A: 35.53%; B: 15.19% & 3.295%. With CCCN(C(=O)CS(=O)(=O)c1ccccc1)c1cccc(C)c1 the screen gave A: 7.443%; B: 0.8976%.

Result for O=S(=O)(NCc1cn2ccccc2n1)N1CCOCC1 was A: -19.77%; B: -34.67%. With Cc1ccc(C(=O)N(C)Cc2cc(C)on2)cn1 the screen gave A: -25.99%; B: -10.57%. CCCN(Cc1cccnc1)Cc1ccc(C2CCCCO2)o1 (configuration not stated) read A: -10.04%; B: -7.868%. For O=C(CCCNC(=O)Nc1ccc(F)cc1F)Nc1cn[nH]c1 the result was A: 8.052%; B: 8.83%.

For COc1cccc(-c2noc(CN3CCOCC3C)n2)c1 (configuration not stated) the result was A: 4.472% & 5.643%; B: -10.89%. COCCN(Cc1ccc(F)cc1Cl)C(=O)c1cnn(C)c1C gave A: 15.51% & 2.295%; B: -6.694%. For CO[C@H]1CO[C@@]2(CCCN(C(=O)C3CC=CC3)C2)C1 the result was A: 13.65%; B: 5.607%. COCC1CN(C(=O)c2cccc(C)n2)Cc2ncnn2C1 (configuration not stated) gave A: 2.159% & -8.872%; B: -10.14%.

CC1(C)[C@H](Cc2cc(CO)on2)C[C@@H]1N(CC1CC1)CC1CC1 gave A: 0.1084% & 7.581%; B: 6.235%. Result for CC1CCCN(Cc2c(C3CCOCC3)[nH]c3ncccc23)C1 (configuration not stated) was A: -67.99%; B: 2.723%. [H][C@]12CC[C@](O)(c3ccccc3F)[C@@]1([H])CN(C(=O)c1cc(C3CC3)on1)C2 read A: 2.999%; B: -1.51% & 13.22%. Cn1cc(CNC2CC3(CCN(S(C)(=O)=O)CC3)c3ccccc32)cn1.O=C(O)C(F)(F)F (configuration not stated) read A: 8.958%; B: -27.94%.

Result for Cc1nc(-c2c(-c3ccccc3)ncn2[C@H]2C[C@@H](C(=O)O)N(C)C2)co1 was A: 4.164%; B: 11.75%. Result for NC(=O)c1cc2c(nc1N)CCN(C(=O)C1CCCCC1)C2 was A: 7.936%; B: 4.871%.

Some entries from above, unchanged:

{"compound": "CC1CCCN(Cc2c(C3CCOCC3)[nH]c3ncccc23)C1", "stereo": "configuration not stated", "A": -67.99, "B": 2.723}
{"compound": "COCCN(Cc1ccc(F)cc1Cl)C(=O)c1cnn(C)c1C", "A": "15.51 & 2.295", "B": -6.694}

Source: ChEMBL document CHEMBL3988442, “University of Dundee, Small-Polar-MMV Screening Library” (2021).